Results published in publication PMC8036949, “Investigation of the Interaction of Human Origin Recognition Complex Subunit 1 with G-Quadruplex DNAs of Human c-myc Promoter and Telomere Regions”.

Target: T1, hORC1(413-511) (Homo sapiens) (UniProt Q13415)
T1 sequence (looked up): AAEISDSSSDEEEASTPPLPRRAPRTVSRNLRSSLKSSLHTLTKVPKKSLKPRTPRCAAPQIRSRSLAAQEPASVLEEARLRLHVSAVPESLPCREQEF
Experiment: fluorescence anisotropy
Conditions: 100 mM LiCl instead of KCl; FA: 20 mM HEPES-KOH pH 7.7, 100 mM KCl (or LiCl), 1 mM EDTA, 1 mM DTT, 25 C, 2 uM DNA, 1:1 fit; recombinant protein; residues 413-511; label: 5'-FAM; single-stranded DNA

Sequence “TTGGGTTAGGGTTAGGGTTAGGGA [teloDNA in LiCl (no G4)]” has a Kd of 1540 nM.

For at least one entry, the source does not settle the construct or the ends of the probe. Tags and fusion partners may be left off the protein sequences shown.
